US20230277618A1 (BROAD INSTITUTE, published 2023)
Results are given in words; binding and its absence hold for the method and conditions named. Some binding calls cover weakened binding; strength is not graded here.

By UniProt entry, the sequences of proteins in these tests, tags left out.
UniProt Q9ULH0: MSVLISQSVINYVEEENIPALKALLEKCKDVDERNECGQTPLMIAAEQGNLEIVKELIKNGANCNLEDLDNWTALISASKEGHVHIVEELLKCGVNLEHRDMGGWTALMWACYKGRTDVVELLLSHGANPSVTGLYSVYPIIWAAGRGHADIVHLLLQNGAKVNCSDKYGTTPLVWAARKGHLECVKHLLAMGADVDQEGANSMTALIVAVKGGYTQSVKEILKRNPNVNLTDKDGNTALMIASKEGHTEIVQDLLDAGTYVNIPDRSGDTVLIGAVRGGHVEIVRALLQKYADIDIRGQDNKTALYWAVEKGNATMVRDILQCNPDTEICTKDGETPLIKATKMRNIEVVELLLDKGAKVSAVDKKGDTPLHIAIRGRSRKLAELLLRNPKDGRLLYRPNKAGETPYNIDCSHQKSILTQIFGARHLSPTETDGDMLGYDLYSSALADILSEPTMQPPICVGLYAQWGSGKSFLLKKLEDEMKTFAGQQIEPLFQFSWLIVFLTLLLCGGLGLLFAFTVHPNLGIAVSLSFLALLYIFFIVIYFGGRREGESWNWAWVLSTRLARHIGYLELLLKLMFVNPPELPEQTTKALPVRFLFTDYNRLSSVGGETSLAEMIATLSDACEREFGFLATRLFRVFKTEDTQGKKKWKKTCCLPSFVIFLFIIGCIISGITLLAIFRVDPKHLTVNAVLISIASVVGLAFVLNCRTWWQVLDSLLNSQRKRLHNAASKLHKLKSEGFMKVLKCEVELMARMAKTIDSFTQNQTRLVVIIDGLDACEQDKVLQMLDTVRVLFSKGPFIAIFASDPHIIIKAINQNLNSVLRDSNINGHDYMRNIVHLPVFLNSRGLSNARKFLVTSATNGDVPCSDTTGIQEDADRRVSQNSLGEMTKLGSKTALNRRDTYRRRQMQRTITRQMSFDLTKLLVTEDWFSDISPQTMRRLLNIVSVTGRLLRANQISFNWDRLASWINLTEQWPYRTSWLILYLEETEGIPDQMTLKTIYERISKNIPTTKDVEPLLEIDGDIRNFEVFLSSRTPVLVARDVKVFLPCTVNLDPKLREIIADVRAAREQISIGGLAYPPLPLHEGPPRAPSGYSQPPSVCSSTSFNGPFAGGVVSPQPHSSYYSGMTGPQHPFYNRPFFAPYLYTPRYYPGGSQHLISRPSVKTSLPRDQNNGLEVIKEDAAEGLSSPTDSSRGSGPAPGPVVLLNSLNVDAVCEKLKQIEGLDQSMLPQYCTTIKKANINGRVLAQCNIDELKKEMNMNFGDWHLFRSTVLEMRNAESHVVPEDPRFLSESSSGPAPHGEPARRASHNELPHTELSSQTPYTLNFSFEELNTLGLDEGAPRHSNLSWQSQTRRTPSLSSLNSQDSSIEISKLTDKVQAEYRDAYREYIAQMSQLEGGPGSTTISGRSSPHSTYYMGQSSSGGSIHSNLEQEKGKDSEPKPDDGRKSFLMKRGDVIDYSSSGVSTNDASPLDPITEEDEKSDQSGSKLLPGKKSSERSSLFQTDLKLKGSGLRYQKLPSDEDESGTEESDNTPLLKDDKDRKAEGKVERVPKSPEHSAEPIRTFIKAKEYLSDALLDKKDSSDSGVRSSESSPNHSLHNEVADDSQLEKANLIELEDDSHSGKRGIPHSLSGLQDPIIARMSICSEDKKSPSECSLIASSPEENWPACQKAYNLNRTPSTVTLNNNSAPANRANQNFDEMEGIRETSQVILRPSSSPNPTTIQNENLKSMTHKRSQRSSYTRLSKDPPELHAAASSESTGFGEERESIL

Biological target: KIDINS220 (kinase D interacting substrate 220), endogenous in HEK-293T cells (human) (UniProt Q9ULH0)
Assay: western blot of 293T cells with stable knockout of XPR1 or KIDINS220

B1: XPR1 (xenotropic and polytropic retrovirus receptor 1), endogenous or re-expressed wildtype human XPR1 on cells (receptor)
chain: MKFAEHLSAHITPEWRKQYIQYEAFKDMLYSAQDQAPSVEVTDEDTVKRYFAKFEEKFFQTCEKELAKINTFYSEKLAEAQRRFATLQNELQSSLDAQKESTGVTTLRQRRKPVFHLSHEERVQHRNIKDLKLAFSEFYLSLILLQNYQNLNFTGFRKILKKHDKILETSRGADWRVAHVEVAPFYTCKKINQLISETEAVVTNELEDGDRQKAMKRLRVPPLGAAQPAPAWTTFRVGLFCGIFIVLNITLVLAAVFKLETDRSIWPLIRIYRGGFLLIEFLFLLGINTYGWRQAGVNHVLIFELNPRSNLSHQHLFEIAGFLGILWCLSLLACFFAPISVIPTYVYPLALYGFMVFFLINPTKTFYYKSRFWLLKLLFRVFTAPFHKVGFADFWLADQLNSLSVILMDLEYMICFYSLELKWDESKGLLPNNSEESGICHKYTYGVRAIVQCIPAWLRFIQCLRRYRDTKRAFPHLVNAGKYSTTFFMVTFAALYSTHKERGHSDTMVFFYLWIVFYIISSCYTLIWDLKMDWGLFDKNAGENTFLREEIVYPQKAYYYCAIIEDVILRFAWTIQISITSTTLLPHSGDIIATVFAPLEVFRRFVWNFFRLENEHLNNCGEFRAVRDISVAPLNADDQTLLEQMMDQDDGVRNRQKNRSWKYNQSISLRRPRLASQSKARDTKVLIEDTDDEANT
- binding: binds
